For assay [1], the target named is uL23 as bait of the co-IP of Figure 1C (tag not told) (S. cerevisiae) (UniProt P04456). As to the kind of experiment: co-IP; yeast lysates; GFP-Trap_A beads (GFP-tagged baits) or IgG-Sepharose (TAP-tagged baits), 3 h at 4°C, western blot; wild type and the strains sup45-2, rat8-2, rat7ΔN shifted to 37°C for 1 h; also 0.5 mg/ml cycloheximide for 30 min; also high copy RLI1. For orientation: Immunoblotting shows a protein as a band on a membrane.

By UniProt entry, the sequences of proteins in these tests, tags left out. Where a name states a change or a piece, a line headed by the entry shows the natural chain unless it says otherwise.
UniProt P04456: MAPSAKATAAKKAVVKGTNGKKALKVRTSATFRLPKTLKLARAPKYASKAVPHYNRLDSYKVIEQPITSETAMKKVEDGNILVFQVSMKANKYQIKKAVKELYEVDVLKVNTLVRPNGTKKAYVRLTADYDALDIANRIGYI
UniProt P05453: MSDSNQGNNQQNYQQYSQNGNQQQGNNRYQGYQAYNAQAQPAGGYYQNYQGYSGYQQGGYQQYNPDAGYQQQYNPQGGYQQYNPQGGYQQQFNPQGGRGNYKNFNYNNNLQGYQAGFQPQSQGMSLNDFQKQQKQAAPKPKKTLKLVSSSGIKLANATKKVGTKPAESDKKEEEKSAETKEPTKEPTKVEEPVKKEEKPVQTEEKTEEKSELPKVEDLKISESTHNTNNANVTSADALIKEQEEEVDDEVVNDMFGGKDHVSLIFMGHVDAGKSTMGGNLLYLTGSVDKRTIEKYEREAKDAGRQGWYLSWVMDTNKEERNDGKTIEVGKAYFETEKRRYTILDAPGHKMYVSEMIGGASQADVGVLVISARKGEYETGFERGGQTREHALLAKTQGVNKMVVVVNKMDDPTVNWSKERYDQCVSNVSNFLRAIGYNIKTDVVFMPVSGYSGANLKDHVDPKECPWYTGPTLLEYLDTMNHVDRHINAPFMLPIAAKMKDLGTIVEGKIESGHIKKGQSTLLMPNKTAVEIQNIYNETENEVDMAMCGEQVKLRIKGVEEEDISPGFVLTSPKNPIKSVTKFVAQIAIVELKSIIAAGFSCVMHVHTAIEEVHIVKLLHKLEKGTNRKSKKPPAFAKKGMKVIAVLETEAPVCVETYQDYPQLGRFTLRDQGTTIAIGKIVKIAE
UniProt P06103: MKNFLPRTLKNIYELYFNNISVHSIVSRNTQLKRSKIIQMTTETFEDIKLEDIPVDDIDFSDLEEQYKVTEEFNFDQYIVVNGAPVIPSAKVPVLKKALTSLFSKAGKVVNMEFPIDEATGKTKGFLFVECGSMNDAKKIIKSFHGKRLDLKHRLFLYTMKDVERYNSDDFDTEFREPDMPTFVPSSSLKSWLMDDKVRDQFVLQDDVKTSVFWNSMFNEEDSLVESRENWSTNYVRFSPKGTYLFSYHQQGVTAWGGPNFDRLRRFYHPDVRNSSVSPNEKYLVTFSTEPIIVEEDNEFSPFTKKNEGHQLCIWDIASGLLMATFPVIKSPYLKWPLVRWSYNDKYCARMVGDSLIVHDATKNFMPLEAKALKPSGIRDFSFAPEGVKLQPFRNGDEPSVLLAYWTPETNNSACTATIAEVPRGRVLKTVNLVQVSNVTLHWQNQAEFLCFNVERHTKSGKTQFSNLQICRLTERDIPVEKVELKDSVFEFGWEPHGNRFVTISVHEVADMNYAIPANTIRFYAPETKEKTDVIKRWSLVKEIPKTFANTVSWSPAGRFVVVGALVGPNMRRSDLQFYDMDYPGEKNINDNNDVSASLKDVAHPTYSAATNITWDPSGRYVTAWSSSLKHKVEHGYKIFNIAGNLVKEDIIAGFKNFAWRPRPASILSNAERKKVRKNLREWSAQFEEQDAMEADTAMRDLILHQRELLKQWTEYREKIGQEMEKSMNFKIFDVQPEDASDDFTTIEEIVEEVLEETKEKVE
UniProt P12385: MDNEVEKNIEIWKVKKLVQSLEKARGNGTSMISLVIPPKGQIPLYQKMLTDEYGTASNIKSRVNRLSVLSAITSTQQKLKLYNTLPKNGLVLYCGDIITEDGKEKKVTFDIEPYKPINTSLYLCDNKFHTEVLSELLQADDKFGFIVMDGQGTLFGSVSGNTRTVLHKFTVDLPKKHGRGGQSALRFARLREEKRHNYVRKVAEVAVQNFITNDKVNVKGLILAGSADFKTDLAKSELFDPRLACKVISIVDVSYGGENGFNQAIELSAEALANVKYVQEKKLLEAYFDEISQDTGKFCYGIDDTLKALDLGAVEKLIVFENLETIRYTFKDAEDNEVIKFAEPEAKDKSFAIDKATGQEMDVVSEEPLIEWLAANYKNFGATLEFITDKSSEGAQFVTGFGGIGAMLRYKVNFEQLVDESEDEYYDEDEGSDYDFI

Assay [2] addresses T1, Dbp5 as precipitated in the Dbp5 IPs (tag not told) (S. cerevisiae) (UniProt P20449).
T1 sequence: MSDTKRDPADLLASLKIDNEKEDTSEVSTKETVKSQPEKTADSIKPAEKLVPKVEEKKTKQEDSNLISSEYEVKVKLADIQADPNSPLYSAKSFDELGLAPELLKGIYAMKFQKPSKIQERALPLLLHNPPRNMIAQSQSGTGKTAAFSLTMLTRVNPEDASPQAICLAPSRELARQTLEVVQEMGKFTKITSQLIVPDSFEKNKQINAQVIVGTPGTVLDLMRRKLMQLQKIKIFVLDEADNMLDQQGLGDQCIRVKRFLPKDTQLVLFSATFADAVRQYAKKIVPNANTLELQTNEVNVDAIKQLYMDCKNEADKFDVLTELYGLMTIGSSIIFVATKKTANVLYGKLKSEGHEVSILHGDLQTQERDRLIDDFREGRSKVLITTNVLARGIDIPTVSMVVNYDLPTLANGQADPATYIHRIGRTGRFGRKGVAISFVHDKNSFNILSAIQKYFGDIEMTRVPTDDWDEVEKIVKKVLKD
The description is as above.

Assay [3] concerns the target eRF3 as used in the eRF3/eRF1 co-IPs of Figures 3B and 3D (tag not told) (S. cerevisiae) (UniProt P05453). Described as above.
A further assay has as its target Prt1-GFP (S. cerevisiae) (UniProt P06103). As to the kind of experiment: co-IP; yeast lysate of sup45-2 cells; Prt1-GFP precipitated, western blot.

This passage reports binding results from paper PMC6511868.

These are yes or no findings as the source states them, for the method shown. In cells and extracts the contact can be indirect. For some of these results: Binding calls can cover weak binding; strength is not graded here. For some of these results: Sequences can lack the tags named with a protein.

On to “mutated eRF1 protein sup45-2 (from UniProt P12385)”, for which the binding result was “binds” in assay [1], “binds” in assay [2], “binds” in assay [3] and “no binding” in the assay with Prt1-GFP (S. cerevisiae).
